Test results taken from article PMC3837162.

The chains behind the UniProt entries cited, without tags or fusion partners.
UniProt P84095: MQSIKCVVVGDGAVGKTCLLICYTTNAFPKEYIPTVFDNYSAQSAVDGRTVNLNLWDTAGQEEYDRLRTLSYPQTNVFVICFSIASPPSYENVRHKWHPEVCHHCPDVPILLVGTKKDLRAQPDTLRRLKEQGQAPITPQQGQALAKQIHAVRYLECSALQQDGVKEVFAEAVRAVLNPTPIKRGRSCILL

Target: GST-RhoG fusion protein (UniProt P84095)
Assay: affinity purification with mass spectrometry; GTPγS-loaded (100 uM) GST-RhoG-Sepharose beads rotated with washed human platelet lysates (500 ul, 5 x 10^8/ml) for 1 h at 4 °C; bound proteins eluted in Laemmli buffer, SDS-PAGE, in-gel tryptic digestion, LTQ Orbitrap Velos; three donors; only the target purified

binding: binds
B1: Protein S100-A8 (protein, UniProt P05109 1-93)
chain: MLTELEKALNSIIDVYHKYSLIKGNFHAVYRDDLKKLLETECPQYIRKKGADVWFKELDINTDGAVNFQEFLILVIKMGVAAHKKSHEESHKE

No constants are given. Whether binding was seen depends on the method and setting. In cells and extracts the contact can be indirect. Here binding means that the protein was enriched with, or labelled near, the bait; the list need not be complete.
